Experimental data: paper PMC6629148
These are yes or no findings as the source states them, for the method shown. Binding seen in cells or lysates may run through a third protein. Some results given as binding are weak or reduced against the parent protein; the word gives no strength. Where a sequence is shown, tags or fusion partners need not be part of it.

Chains of the proteins cited; added tags and fusions are not shown.
UniProt P28033: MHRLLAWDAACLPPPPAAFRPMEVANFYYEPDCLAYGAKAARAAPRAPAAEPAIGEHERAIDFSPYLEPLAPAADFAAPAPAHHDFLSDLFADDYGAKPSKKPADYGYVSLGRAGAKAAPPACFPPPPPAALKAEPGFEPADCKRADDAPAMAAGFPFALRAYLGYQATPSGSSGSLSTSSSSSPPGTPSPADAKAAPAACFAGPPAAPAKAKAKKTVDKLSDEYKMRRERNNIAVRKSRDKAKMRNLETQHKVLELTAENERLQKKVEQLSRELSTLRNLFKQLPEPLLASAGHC

Key:
[1] = biological target: T1, Flag-CEBPδ (CCAAT/enhancer binding protein delta) (UniProt Q00322); assay: co-IP; lysates of 293FT cells transfected with HA-IRX5 and Flag-CEBPβ or Flag-CEBPδ; incubated with Anti-FLAG M2 Affinity Gel at 4°C overnight; washed with lysis buffer; SDS-PAGE and immunoblotting
T1 sequence: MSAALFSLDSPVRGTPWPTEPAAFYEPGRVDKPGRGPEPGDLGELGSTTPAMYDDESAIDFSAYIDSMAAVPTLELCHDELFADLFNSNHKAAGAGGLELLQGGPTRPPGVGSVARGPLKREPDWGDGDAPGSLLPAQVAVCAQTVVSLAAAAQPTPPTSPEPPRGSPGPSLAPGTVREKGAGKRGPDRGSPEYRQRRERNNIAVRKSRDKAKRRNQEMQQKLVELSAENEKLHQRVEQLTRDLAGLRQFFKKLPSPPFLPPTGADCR

[2] = biological target: Flag-CEBPβ (CCAAT/enhancer binding protein beta) (UniProt P28033); assay: as above

B1: HA-IRX5 (iroquois homeobox 5) (protein, UniProt Q9JKQ4 1-484)
chain: MSYPQGYLYQPSASLALYSCPAYSTSVISGPRTDELGRSSSGSAFSPYAGSTAFTAPSPGYNSHLQYGADPAAAAAAAFSYVGSPYDHTPGMAGSLGYHPYAAPLGSYPYGDPAYRKNATRDATATLKAWLNEHRKNPYPTKGEKIMLAIITKMTLTQVSTWFANARRRLKKENKMTWTPRNRSEDEEEEENIDLEKNDEDEPQKPEDKGDLEGPESGGAEQKATAGCERLQGPLSPAGKETEGSLSDSDFKESSSEGRHDELPRPPRAGESSPAGPATARLAEDAGPHYPASVPAPGPHPSAGELPPGSGGSSVIHSPPPPPPPPPAVLAKPKLWSLAEIATSSDKVKDGGGGSEGSPCPPCPGPMGGQTLGGSRASPAPAPARSPSAQCPFPGGTVLSRPLYYTAPFYPGYTNYGSFGHLHGHPGPGPSPTAGPGSHFNGLNQTVLNRADVLAKDPKMLRSQSQLDLCKDSPYELKKGMSDI
For B1, the binding [1] was “binds” and the binding [2] was “binds”.
